Measured values reported in PMC2222952, “Structural and Biochemical Bases for the Inhibition of Autophagy and Apoptosis by Viral BCL-2 of Murine γ-Herpesvirus 68” (PLoS Pathogens, 2008).

Tested on: human BCL-2 (residues 1–50 and 92–207)
Assay: Isothermal titration calorimetry (ITC) of BCL-2 with Beclin1 fragment
Format: binding
Conditions: 25 °C, 20 mM Tris-HCl (pH 7.4), 100 mM NaCl, Table S2
Protocol: Figure 3 M11 Interacts Much More Tightly with Beclin1 than BCL-2 and BCL-XL (A) ITC analysis. The measurement was carried out by titrating 0.1 mM of M11 or BCL-2 into 5 μM of the indicated Beclin1 fragment. The K D values were deduced from curve fittings of the integrated heat per mol of added ligand. (B) M11–Beclin1 interface is tighter than that of BCL-XL–Beclin1. The structures of M11–Beclin1 fragment (left) and BCL-XL–Beclin1 peptide (right) are compared side by side. In both the structures, the five consensus BH3 residues of the bound α-helices and the side chains of M11 or BCL-XL interacting with those residues are shown as sticks and labeled. Noted are the tighter interactions of the N-terminal region of Beclin1 with the α3 helix of M11 than the corresponding region in the BCL-XL–Beclin1 helix (indicated by dotted circles).
Each of the DNA fragments coding for M11 (residues 1–137), mouse BCL-XL (residues 1–44 and 85–196) or mouse Beclin1 (residues 101–267) was cloned into pPROEX HTa. A plasmid containing the DNA segment coding for human BCL-2 (residues 1–50 and 92–207) was also constructed. The resulting protein lacks the internal long loop (residues 51–91) and contains a replacement of residues 35–50 with residues 33–48 of BCL-XL, which was necessary for the solubility of the protein as reported earlier. Each construct was introduced into the E. coli BL21(DE3) strain. The proteins were expressed at 21 °C overnight and purified using a Ni-NTA column and a Hitrap Q anion exchange column.
All measurements were carried out at 25 °C on a MicroCalorimetry System (MicroCal). Protein samples were dialyzed against the solution containing 20 mM Tris-HCl (pH 7.4) and 100 mM NaCl. The samples were degassed for 20 min and centrifuged to remove any residuals prior to the measurements. Dilution enthalpies were measured in separate experiments (titrant into buffer) and subtracted from the enthalpies of the binding between the protein and the titrant. Data were analyzed using the Origin software (OriginLab Corp.).

B1: Beclin1(101–267): mouse Beclin1 fragment containing residues 101–267, expressed as a soluble form in E. coli (protein)
chain: ASDGGTMENLSRRLKVTGDLFDIMSGQTDVDHPLCEECTDTLLDQLDTQLNVTENECQNYKRCLEILEQMNEDDSEQLQRELKELALEEERLIQELEDVEKNRKVVAENLEKVQAEAERLDQEEAQYQREYSEFKRQQLELDDELKSVENQVRYAQIQLDKLKKTNV
  -T∆S (BCL-2 + Beclin1): 2.48 kcal/mol
  ∆G (BCL-2 + Beclin1): -7.88 kcal/mol
  ∆H (BCL-2 + Beclin1): -10.36 ± 2.08 kcal/mol
